Test results taken from PMC9774241, “Associating Biological Activity and Predicted Structure of Antimicrobial Peptides from Amphibians and Insects” (Antibiotics, 2022).
No end group written: not given here.

The sequences below were run on Escherichia coli ATCC 25922. Settings: ratio of the toxicity to the MIC; range; N/O = no observed antimicrobial activity.
Assay type: cell-based
Description: Bacteria were grown overnight at 37 °C in Mueller-Hinton Broth (MHB; Sigma-Aldrich, St. Louis. MO, USA) in a shaking incubator and aliquoted into cryovials with a 50% glycerol solution in a 1:1 ratio. No additives were added to the MHB during the growth of bacterial isolates. Glycerol stocks were stored at −80 °C.
The antimicrobial activity of the putative AMPs was determined by a broth microdilution assay as described by the Clinical and Laboratory Standards Institute, with the published adaptations for testing of cationic peptides. Escherichia coli 25922 and Staphylococcus aureus 29213 isolates were purchased from the American Type Culture Collection (ATCC; Manassas, VA, USA). A human clinical isolate of Salmonella enterica serovar Enteritidis was provided by the BC Centre for Disease Control. Bacteria from stocks stored at −80 °C were streaked onto nonselective Columbia blood agar with 5% sheep blood (Oxoid) and incubated overnight at 37 °C. Next, 2–4 colonies were streaked onto a new agar plate to ensure uniform health of colonies used in the broth microdilution assay. Isolated colonies were suspended in MHB and the optical density was measured with a spectrophotometer to create an initial inoculum concentration of approximately 1 × 10^8 cfu/mL. The inoculum was diluted 1:250 to a final concentration of 2–8 × 10^5 cfu/mL, which was confirmed by performing a Total Viability Count (TVC). The TVC consisted of plating a 1:1000 dilution of the final inoculum on nonselective media and was also used to confirm the health and purity of the inoculum in each trial.
Lyophilized 80 µg peptide aliquots synthesized by GenScript (Piscataway, NJ, USA) were resuspended to 1.28 mg/mL with UltraPure water (Thermo Fisher Scientific, Waltham, MA, USA) and serially diluted in polypropylene 96-well microtiter plates (Greiner Bio-One #650261, Kremsmünster, Austria) from 128 down to 0.5 µg/mL. […] The minimum inhibitory concentration (MIC) was determined as the lowest peptide concentration where there was no visible bacterial growth.
With GILRLVTRRFRFSPTNLNRYTVARLVSGVP [BoAr6] the “Selectivity Index, E. coli ATCC 25922” value was greater than 4.
RRAIFASIRGYLGLRKR [MyGu1] was tested, and the “Selectivity Index, E. coli ATCC 25922” value was greater than 32.
With GAFVLWGPTPRPRRR [DiLo1] the “Selectivity Index, E. coli ATCC 25922” value was greater than 1.
